In article PMC13061415:
These are yes or no findings as the source states them, for the method shown. Some binding calls cover weakened binding; strength is not graded here.

The chains behind the UniProt entries cited, without tags or fusion partners. Where a name states a change or a piece, a line headed by the entry shows the natural chain unless it says otherwise. A line that says so, or that is headed by a name, gives the form on record, which may keep a tag or linker. Residues count along the entry.
Twa1 CTLH-CRA domain (58-190), wild type (Q9D7M1, residues 58-190): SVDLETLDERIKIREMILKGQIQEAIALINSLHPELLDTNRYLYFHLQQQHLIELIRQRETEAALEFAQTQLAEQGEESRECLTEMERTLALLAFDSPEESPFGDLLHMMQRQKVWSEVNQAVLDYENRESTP
Twa1_3 mutant (L122R, A151R), CTLH-CRA domain (Q9D7M1, form named): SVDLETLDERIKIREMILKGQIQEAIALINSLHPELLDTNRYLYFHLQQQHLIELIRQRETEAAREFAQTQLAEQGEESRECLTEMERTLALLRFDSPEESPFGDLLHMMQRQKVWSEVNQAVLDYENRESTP
Twa1_10 mutant (A130Q, L147F, F152Y, F160V), CTLH-CRA domain (Q9D7M1, form named): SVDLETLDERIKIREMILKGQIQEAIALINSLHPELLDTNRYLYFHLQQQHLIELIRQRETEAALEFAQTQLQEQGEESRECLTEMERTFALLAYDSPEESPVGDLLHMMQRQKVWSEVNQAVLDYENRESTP
muskelin CTLH-CRA domain (205–735 Δ248–625) (Q99PV3, form named): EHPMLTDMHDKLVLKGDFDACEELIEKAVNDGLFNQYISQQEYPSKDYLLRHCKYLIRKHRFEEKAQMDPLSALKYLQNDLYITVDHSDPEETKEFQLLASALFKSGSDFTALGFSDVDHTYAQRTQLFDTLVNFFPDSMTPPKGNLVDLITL

Experiments:
[1] = target: T1, Maea CTLH-CRA domain (156-279) (mouse) (UniProt Q4VC33); experiment: native gel or EMSA; native agarose gel electrophoresis (NAGE): CTLH-CRA domains at 200 μM incubated with the partner at least 30 min at room temperature; 0.8% agarose, 25 mM Tris, 200 mM glycine, 4°C; Coomassie; both purified
T1 sequence: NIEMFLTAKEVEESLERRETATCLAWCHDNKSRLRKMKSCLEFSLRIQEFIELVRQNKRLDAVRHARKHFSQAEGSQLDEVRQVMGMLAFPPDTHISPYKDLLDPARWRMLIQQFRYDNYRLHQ

[2] = target: Twa1_10 mutant (A130Q, L147F, F152Y, F160V), CTLH-CRA domain (mouse) (UniProt Q9D7M1); experiment: as above
[3] = target: Twa1 CTLH-CRA domain (58-190), wild type (mouse) (UniProt Q9D7M1); experiment: as above
[4] = target: muskelin CTLH-CRA domain (205–735 Δ248–625) (rat) (UniProt Q99PV3); experiment: SEC-MALS; purified CTLH-CRA domains alone or mixed (RanBP10 and Twa1 variants with Maea or muskelin), final concentration 250 μM, Superdex 75 10/300 GL; both purified
[5] = target: Twa1 CTLH-CRA domain (58-190), wild type (mouse) (UniProt Q9D7M1); experiment: ITC; muskelin CTLH-CRA (160 μM, syringe) titrated into RanBP10 or Twa1 CTLH-CRA variants (16 μM, cell); 25°C; 20 mM tricine pH 8.0, 500 mM NaCl, 1 mM TCEP; one-site model; both purified

| Substance | binding [1] | binding [2] | binding [3] | binding [4] | binding [5] |
| --- | --- | --- | --- | --- | --- |
| Twa1_3 mutant (L122R, A151R), CTLH-CRA domain (from UniProt Q9D7M1 58-190) (domain or fragment) | no binding (tested: 200 μM) | – | – | – | – |
| muskelin CTLH-CRA domain (205–735 Δ248–625) (from UniProt Q99PV3 205-735) (domain or fragment) | – | no binding (tested: 200 μM) | no binding (tested: 200 μM) | binds weakly | no binding (tested: 160 μM muskelin titrated into 16 μM Twa1) |
